{
  "sequences": {"note": "Protein sequences, listed by entry. Tags and fused reporters are not part of them.", "UniProt O60678": "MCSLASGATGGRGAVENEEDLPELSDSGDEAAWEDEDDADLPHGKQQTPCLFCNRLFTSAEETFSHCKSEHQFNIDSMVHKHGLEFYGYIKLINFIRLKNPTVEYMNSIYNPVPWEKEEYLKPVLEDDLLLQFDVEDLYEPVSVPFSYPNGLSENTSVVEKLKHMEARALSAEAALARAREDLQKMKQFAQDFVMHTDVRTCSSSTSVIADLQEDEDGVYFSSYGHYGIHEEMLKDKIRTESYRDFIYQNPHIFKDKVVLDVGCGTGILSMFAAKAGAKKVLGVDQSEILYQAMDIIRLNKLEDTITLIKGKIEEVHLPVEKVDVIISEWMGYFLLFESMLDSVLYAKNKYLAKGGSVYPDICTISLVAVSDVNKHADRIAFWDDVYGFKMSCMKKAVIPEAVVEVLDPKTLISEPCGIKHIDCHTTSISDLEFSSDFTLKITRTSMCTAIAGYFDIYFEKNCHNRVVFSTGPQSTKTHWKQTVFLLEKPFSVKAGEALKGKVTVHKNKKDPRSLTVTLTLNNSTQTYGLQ", "UniProt P04406": "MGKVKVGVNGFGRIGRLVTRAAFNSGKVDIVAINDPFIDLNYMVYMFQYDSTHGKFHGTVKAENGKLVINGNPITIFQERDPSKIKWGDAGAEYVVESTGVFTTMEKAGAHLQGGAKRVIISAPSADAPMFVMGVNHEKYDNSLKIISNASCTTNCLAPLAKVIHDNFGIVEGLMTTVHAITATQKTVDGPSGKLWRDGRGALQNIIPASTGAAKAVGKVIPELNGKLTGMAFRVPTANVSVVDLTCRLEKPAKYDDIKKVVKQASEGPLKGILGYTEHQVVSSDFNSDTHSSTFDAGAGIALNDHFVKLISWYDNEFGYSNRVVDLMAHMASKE"},
  "source": "paper PMC6642535",
  "biological_target": "Green fluorescent protein (GFP)-tagged PRMT3 (protein arginine methyltransferase 3) (UniProt O60678)",
  "experiment": "co-IP; lysates of GFP- and GFP-PRMT3-overexpressing PANC-1 cells; immunoprecipitation with GFP and GAPDH antibodies; western blotting for GAPDH and GFP",
  "note": "Results are given in words; binding and its absence hold for the method and conditions named. In cells and extracts the contact can be indirect. Some entries that bind do so weakly or less than the wild type.",
  "data": [
    {"substance": "glyceraldehyde-3-phosphate dehydrogenase (GAPDH), endogenous (from UniProt P04406 1-335) (enzyme)", "values": [
      {"measurement": "binding", "result": "binds"}
    ]}
  ]
}
